Source: patent US12077555B2, “STAT degraders and uses thereof” (Kymera Therapeutics, Inc., priority 2019, dated 2024)
Like-named read-outs stand apart in the source and are kept apart here. Structures were worked out from names or drawings and are uncertain.

Tests used:
KARPAS-299 cells = experiment: CellTiter-Glo cell viability, KARPAS-299; conditions: for CTG (% Max inh), Day 4 / IC50: KARPAS-299, ALCL (ALK+), Day 4; for IC50: read-out: CTG, IC50 μM, Day 4
SUP-M2 cells = experiment: CellTiter-Glo cell viability, SUP-M2; conditions: for CTG (% Max inh), Day 4 / IC50: SUP-M2, ALCL (ALK+), Day 4; for IC50: read-out: CTG, IC50 μM, Day 4
SOCS3 = experiment: STAT3 RT-qPCR assay, SOCS3 mRNA; conditions: SU-DHL-1 cells; for STAT3-dependent gene expression of SOCS3: FIG. 5A, FIG. 15
Protocol: (§1) SU-DHL-1 cells were treated with compounds for a designed time. 0.3-0.6 mL lysis buffer with 2-mercaptoethanol was added to the collected cell pellet or monolayer cells. The cells were vortexed until the cell was dispersed and the cells appear lysed. One volume of 70% ethanol was added to each volume of cell homogenate and vortex. 700 μL of the sample was transferred to the spin cartridge and centrifuged at 12000 g for 15s at RT. The flow-through was discarded and the process repeated until the entire samples had been processed. 700 ul wash buffer I was added to the spin cartridge and centrifuged at 12000 g for 15s at RT and the flow-through was discarded. 500 μL wash buffer II with ethanol was added to the spin cartridge and centrifuged at 12000 g for 15s at RT and the flow-through was discarded. The process was then repeated. The spin cartridge was centrifuged at 12000 g for 2 min to dry the membrane with bound RNA. 30-100 μL RNase-free water was added to the center of the spin cartridge and incubated for 1 min at RT. The spin cartridge was centrifuged at 12000 g for 2 min to elute the RNA from the membrane into the recovery tube and the purified RNA was stored. The concentration of the RNA was quantitated using Nano-Drop. cDNA was formed from the RNA by reverse transcription and qPCR of the cDNA with primer of the gene of interest and housekeeping gene was preformed using the volumes below: […]

SU-DHL-1 cells = experiment: CellTiter-Glo cell viability, SU-DHL-1; conditions: for cell proliferation: SU-DHL-1, FIG. 5B, FIG. 16
Protocol: Compound-mediated viability effect on MOLM-16 and SU-HDL-1 cells was quantitatively determined using the CellTiter-Glo® Luminescent Cell Viability Assay kit from Promega (Catalog number G7572) following manufacturer's recommended procedures.
Day 0: 60 nL of compounds/DMSO were stamped to the cell plate as on the recommended platemap. Compound precipitation was observed. Cells were centrifuged at 800 rpm for 5 min, suspended with culture medium, and counted with Countess (Invitrogen). The cell density was adjusted to the recommend concentration. 30 μL of cell solution (2000 cells/well) was added to the assay plate according to the platemap. 30 μL of media was added to column 2 and column 23 as on the platemap. The final concentration of the compounds except for the reference compound Paclitaxel was from 10 μM, 3-fold dilution and 11 dose (Paclitaxel started at 500 nM). The final DMSO concentration was 0.2%. The assay plate was incubated at 37° C., 5% CO2 for 4 days.
Day 4: The assay plate was equilibrated to RT for ˜10 minutes. Compound precipitation was observed (96h). To determine cell viability, 30 μL of CellTiter Glo reagent was added to each well and the assay plate was centrifuged at 1000 rpm for 30 second, incubated at room temperature for 10 min, and analyzed by detecting the luminescence using a multimode plate reader (EnVision 2105, PerkinElmer). The data was then analyzed by software Prism 7.0 from GraphPad and the dose response curves were fit using a three-parameter logistic equation to calculate EC50.

PD-L1 = experiment: STAT3 RT-qPCR assay, PD-L1 mRNA; conditions: SU-DHL-1 cells; for STAT3-dependent gene expression of PDL-1: FIG. 5A, FIG. 15
Protocol: as §1

STAT3 = STAT3 RT-qPCR assay, STAT3 mRNA; conditions: SU-DHL-1 cells, FIG. 5A, FIG. 15
Protocol: as §1, with “The spin cartridge was centrifuged at 12000 g for 2 min to elute the RNA from the membrane into the recovery tube and the purified RNA was stored.” left out

SU-DHL-1 tumor cells = experiment: Xenograph tumor study, SU-DHL-1; conditions: SUDHL-1 xenograph, 2.5-30 mg/kg, 2 days on/5 days off
Protocol: Animals: 50 6-8 week old female NOD SCID mice weighing 18 to 20 grams. 25 mice were used in each study.
Method for Tumor Inoculation: Each mouse was inoculated subcutaneously with SU-DHL-1 tumor cells (1×107+Matrigel) or SUP-M2 tumor cells (5×106+Matrigel) in 0.1 ml of RPMI1640 medium supplemented with 10% FBS, 100 U/ml penicillin and […] streptomycin for tumor development. Mice were then assigned to groups such that the mean tumor volume was the same for each treatment group and time point. […] Vehicle was 25% HP-β-CD in water adjusted to pH 7.4.
Measurement Parameters: Study animals were monitored not only for tumor growth but also behavior such as mobility, food and water consumption (by cage side checking only), body weight (BW), eye/hair matting and any other abnormal effect. Any mortality and/or abnormal clinical signs was recorded. Sponsor was notified immediately if abnormal clinical signs, or if tolerability issues were observed. Body weights of all animals were measured and recorded twice per week. The measurement of tumor size was conducted twice weekly with a caliper and recorded. The tumor volume (mm3) was estimated using the formula: TV=a×b2/2, where “a” and “b” are long and short diameters of a tumor, respectively.

Cn1c(=O)n(C2CCC(=O)NC2=O)c2ccc(CCCCCCC(=O)N3CC[C@H]4CC[C@@H](C(=O)N[C@@H](CCC(N)=O)C(=O)NC(c5ccccc5)c5ccccc5)N4C(=O)[C@@H](NC(=O)c4cc5cc(C(=O)P(=O)(O)O)ccc5[nH]4)C3)cc21 (stereo partly shown)
CTG (% Max inh), Day 4 (KARPAS-299 cells): (50-55) % | IC50 (KARPAS-299 cells): 0.14 µM | CTG (% Max inh), Day 4 (SUP-M2 cells): (>95) % | IC50 (SUP-M2 cells): 0.61 µM | STAT3-dependent gene expression of SOCS3 (SOCS3): downregulates | cell proliferation (SU-DHL-1 cells): inhibits | IC50 (SU-DHL-1 cells; read-out: Growth inhibition, CTG IC50 (μM) at 96 hr, SU-DHL-1, 96 hr): 0.167 µM | STAT3-dependent gene expression of PDL-1 (PD-L1): downregulates | STAT3-dependent gene expression of STAT3 (STAT3): downregulates | tumor volume, 5 days (SU-DHL-1 tumor cells; IP): A (A<500 mm^3) | tumor volume, 10 days (SU-DHL-1 tumor cells; IP): A (A<500 mm^3) | tumor volume, 15 days (SU-DHL-1 tumor cells; IP): A (A<500 mm^3) | tumor volume, 20 days (SU-DHL-1 tumor cells; IP): A (A<500 mm^3)

Cc1ncsc1-c1ccc([C@H](C)NC(=O)[C@@H]2C[C@@H](O)CN2C(=O)[C@@H](NC(=O)CCCCc2ccc(CO[C@H](C)[C@H](CCC(N)=O)NC(=O)[C@@H]3Cc4cccc5c4N3C(=O)[C@@H](NC(=O)c3cc4cc(C(=O)P(=O)(O)O)ccc4[nH]3)CC5)cc2)C(C)(C)C)cc1 [Compound I-227]
CTG (% Max inh), Day 4 (KARPAS-299 cells; tested form: diammonium): (85) % | cell proliferation (KARPAS-299 cells; KARPAS-299, FIG. 16, tested form: diammonium): inhibit | IC50 (KARPAS-299 cells; tested form: diammonium): 0.047 µM | CTG (% Max inh), Day 4 (SUP-M2 cells; tested form: diammonium): (>95) % | cell proliferation (SUP-M2 cells; SUP-M2, FIG. 16, tested form: diammonium): inhibit | IC50 (SUP-M2 cells; tested form: diammonium): 0.125 µM | STAT3-dependent gene expression of SOCS3 (SOCS3; tested form: diammonium): downregulates | IC50 (SOCS3; read-out: mRNA (RT-qPCR) IC50 (μM), 24 hr SOCS3, 24 hr, tested form: diammonium): 0.066 µM | CTG (% Max inh), Day 4 (SU-DHL-1 cells; SU-DHL-1, ALCL (ALK+), Day 4, tested form: diammonium): (89) % | cell proliferation (SU-DHL-1 cells; tested form: diammonium): inhibit | IC50 (SU-DHL-1 cells; read-out: CTG, IC50 μM, Day 4, SU-DHL-1, ALCL (ALK+), Day 4, tested form: diammonium): 0.321 µM | STAT3-dependent gene expression of PDL-1 (PD-L1; tested form: diammonium): downregulates | IC50 (PD-L1; read-out: mRNA (RT-qPCR) IC50 (μM), 24 hr PD-L1, 24 hr, tested form: diammonium): 0.03 µM | STAT3-dependent gene expression of STAT3 (STAT3; tested form: diammonium): downregulates | tumor volume, 5 days (SU-DHL-1 tumor cells; IV, tested form: diammonium): A (A<500 mm^3) | tumor volume, 10 days (SU-DHL-1 tumor cells; IV, tested form: diammonium): B (B=500-1000 mm^3) | tumor volume, 15 days (SU-DHL-1 tumor cells; IV, tested form: diammonium): C (C=>1000 mm^3) | tumor volume, 20 days (SU-DHL-1 tumor cells; IV, tested form: diammonium): C (C=>1000 mm^3)
